Experiment [1] has as its target Atlantic herring phosphoglucomutase 5 (Atlantic variant with Ala330) (Clupea harengus harengus (Atlantic herring)). Put plainly: SEC; preparative size exclusion chromatography during purification: HiLoad 16/60 Superdex 200 and Superdex 75, 25 mM Tris-HCl, 150 mM NaCl, pH 8.0; both purified. On the technique in general: Size exclusion chromatography separates by hydrodynamic size, large species first.

Experiment [2] has as its target Baltic herring phosphoglucomutase 5 (Baltic variant with Val330) (Clupea harengus membras (Baltic herring)). The description is as above.

No constants are given. Whether binding was seen depends on the method and setting. Where a sequence is shown, tags or fusion partners need not be part of it.

B1: Atlantic herring phosphoglucomutase 5 (Atlantic variant with Ala330) (protein, UniProt A0A6P3VN15 1-567)
chain: METNPIPVVTVQTTPFDDQKPGTNGLRKKTTVFESKKNYLQNYIQSVLSSIDLRDRQGCTMVVGSDGRYFSRTAIEVIVQMAAANGIGRLVIGHNGILSTPAVSCIIRKIKAIGGIILTASRNPGGPNGDFGIKFNVANGGPAPDTVIDKIHQVSRTLEEYAICPDMRIDLSRLGRQDFDLENKFKPFRVEIVDSVEVYLNLLRGIFDFNAIKGLLTGPDQLKMRVDAMSGVMGPYVRRILCDELGAPANSAVNCVPLEDFGGHYPDPNLTYATGLVDAMKGGEFGFGAAFDADGDRCMILGQNAFFVNPSDSLAVVAANLSCIPYFRQAGVRGFARSMPTSTAIDRVAKAMKVAVYETPAGWRFFGNLMDSGRCSFCGEESFGMGSDHIREKDGLWTVLVWLSIMAARKQGVEDIVRDHWTKLGRNYFCRFDYEAIDPRAAFYLMKDLEAVISDKAFCSQKFAVGNSVYSVEKADNFEYIDPVDGTVARNQGLRIIFSESSRLIFRLSGTGVGVGATIRIYAESFERDPERHNREPQVVLGPLIAIALKISDIHERTGRRGPTVIT
With B1, in experiment [1], the binding entry was “no binding”.

B2: Baltic herring phosphoglucomutase 5 (Baltic variant with Val330) (protein, UniProt A0A6P3VN15 1-567)
chain: METNPIPVVTVQTTPFDDQKPGTNGLRKKTTVFESKKNYLQNYIQSVLSSIDLRDRQGCTMVVGSDGRYFSRTAIEVIVQMAAANGIGRLVIGHNGILSTPAVSCIIRKIKAIGGIILTASRNPGGPNGDFGIKFNVANGGPAPDTVIDKIHQVSRTLEEYAICPDMRIDLSRLGRQDFDLENKFKPFRVEIVDSVEVYLNLLRGIFDFNAIKGLLTGPDQLKMRVDAMSGVMGPYVRRILCDELGAPANSAVNCVPLEDFGGHYPDPNLTYATGLVDAMKGGEFGFGAAFDADGDRCMILGQNAFFVNPSDSLAVVAANLSCIPYFRQVGVRGFARSMPTSTAIDRVAKAMKVAVYETPAGWRFFGNLMDSGRCSFCGEESFGMGSDHIREKDGLWTVLVWLSIMAARKQGVEDIVRDHWTKLGRNYFCRFDYEAIDPRAAFYLMKDLEAVISDKAFCSQKFAVGNSVYSVEKADNFEYIDPVDGTVARNQGLRIIFSESSRLIFRLSGTGVGVGATIRIYAESFERDPERHNREPQVVLGPLIAIALKISDIHERTGRRGPTVIT
As to B2, the binding result in experiment [2] is given as “no binding”.

Values taken from PMC7761743, “Structure and Characterization of Phosphoglucomutase 5 from Atlantic and Baltic Herring—An Inactive Enzyme with Intact Substrate Binding” (Biomolecules, 2020).
